The structures appear in SMILES notation. The list is a part of this screen's results and no random one: it is rich in T/C values a quarter to a half above the control, in often repeated tests (any T/C) and in doses without a T/C. Further doses and runs are listed elsewhere. T/C gives the treated animals as a percentage of the vehicle group. Schedule codes are those of the source, taken here to give the interval after Q, in days (D) or hours (H), and the number of doses after X. Some T/C values carry the count of animals alive at the toxicity check (mostly the fifth day); where none is given, no animal had died by that day. Some doses were run more than once; their values stand side by side, smallest first. Some entries give survivors of the animals treated and no T/C: the source holds a T/C of zero for them, seemingly a mark for toxic or unscored doses. Survivors were counted at the toxicity check, usually on the fifth day, unless a day is given; later deaths do not show. *1 amine or outer side, *2 acyl side, *3 side chain or, on linkers, in order; H or OH if unused. Where a SMILES comes first, the peptide text is derived from it. Bridges are numbered along the chain shown (N, C = ends). Roman numbers before positions name the chains, in order. [ ]: non-standard residue; d: D form. Actinocin(9to1) = Cc1c2oc3c(C)ccc(C(=O)[*:1])c3nc-2c(C(=O)[*:2])c(N)c1=O; aThr = C[C@H](O)[C@H](N)C(=O)O; NMeV = CN[C@H](C(=O)O)C(C)C; Sar = CNCC(=O)O

The subject of the assay is MX-1 breast xenograft, nude mice, tumor weight T/C. The assay can be described thus: NCI In Vivo Anticancer Drug Screen. Data for tumor model Human Mammary Carcinoma MX-1 Xenograft (intrarenal inoculation) in NU/NU Swiss (nude) mice. Conditions: T/C endpoint: mean tumor weight change, higher T/C = larger tumour; for T/C: evaluated on day 11. The essentials:
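Mice carrying the implanted tumor receive either test agent or vehicle. Tumor size or survival is then recorded for both groups. Results are stated as the treated-to-control quotient.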
(Xenograft models place foreign cells or tissue in a host animal.)

Where [1] appears, read: dose: 50.0 mg/kg/injection, schedule: Q01DX010 (sc), vehicle: saline.
[2] abbreviates: dose: 100.0 mg/kg/injection, schedule: Q01DX010 (sc), vehicle: saline.
Where [3] appears, read: dose: 200.0 mg/kg/injection, schedule: Q01DX010 (sc), vehicle: saline.
Setting [4] is: dose: 400.0 mg/kg/injection, schedule: Q01DX010 (sc), vehicle: saline.
Where [5] appears, read: dose: 600.0 mg/kg/injection, schedule: Q04DX003 (sc), vehicle: saline with Tween-80.
The mark [6] stands for this setting: dose: 1200.0 mg/kg/injection, schedule: Q04DX003 (sc), vehicle: saline with Tween-80.

In the case of `COc1cc2c(c(OC)c1OC)-c1ccc(OC)c(=O)cc1[C@@H](NC(=O)CCl)CC2`, the survivor count (dose: 5.0 mg/kg/injection, schedule: Q04DX003 (sc), vehicle: saline with Tween-80) is listed as 0 of 6 on day 11; the survivor count (dose: 10.0 mg/kg/injection, schedule: Q04DX003 (sc), vehicle: saline with Tween-80) was 0 of 6 on day 11; the survivor count (dose: 20.0 mg/kg/injection, schedule: Q04DX003 (sc), vehicle: saline with Tween-80) was 0 of 6 on day 11; the survivor count (dose: 40.0 mg/kg/injection, schedule: Q04DX003 (sc), vehicle: saline with Tween-80) was 0 of 6 on day 11.
Regarding `CN(C(=S)S(=O)(=O)C12CC3CC(CC(C3)C1)C2)c1ccccc1`, the T/C is 149 % of control (dose: 400.0 mg/kg/injection, schedule: Q04DX003 (sc), vehicle: Klucel (hydroxypropylcellulose) (HPC)) and 148 % of control (dose: 1600.0 mg/kg/injection, schedule: Q04DX003 (sc), vehicle: Klucel (hydroxypropylcellulose) (HPC)).
In the case of `Cc1c2oc3c(C)ccc(C(=O)N[C@@H]4C(=O)N[C@H](C(C)C)C(=O)N5CCC[C@H]5C(=O)N(C)CC(=O)N(C)[C@@H](C(C)C)C(=O)O[C@H]4C)c3nc-2c(C(=O)N[C@@H]2C(=O)N[C@H](C(C)C)C(=O)N3CCC[C@H]3C(=O)N(C)CC(=O)N(C)[C@@H](C(C)C)C(=O)O[C@H]2C)c(N)c1=O` (I: [aThr][dV]P[Sar][NMeV] / II: [aThr][dV]P[Sar][NMeV]; ester I:1-I:C, II:1-II:C; linker I:N-II:N via Actinocin(9to1)), the survivor count (dose: 2.0 mg/kg/injection, schedule: Q04DX003 (sc), vehicle: saline) is on record as 0 of 6 on day 11; the survivor count (dose: 200.0 micrograms/kg/injection, schedule: Q01DX010 (sc), vehicle: saline) was 0 of 3 on day 11; the survivor count (dose: 400.0 micrograms/kg/injection, schedule: Q01DX010 (sc), vehicle: saline) was 0 of 3 on day 11 and 0 of 6 on day 11; the survivor count (dose: 800.0 micrograms/kg/injection, schedule: Q01DX010 (sc), vehicle: saline) is 0 of 3 on day 11.
For the molecule `O=C(CCBr)N1CCN(C(=O)CCBr)CC1`, the survivor count reads like this: (dose: 50.0 mg/kg/injection, schedule: Q01DX010 (sc), vehicle: Klucel (hydroxypropylcellulose) (HPC)) 0 of 3 on day 11; (dose: 72.0 mg/kg/injection, schedule: Q01DX010 (sc), vehicle: Klucel (hydroxypropylcellulose) (HPC)) 3 of 6 on day 11; (dose: 100.0 mg/kg/injection, schedule: Q01DX010 (sc), vehicle: Klucel (hydroxypropylcellulose) (HPC)) 0 of 3 on day 11.
Consider `COc1cc([C@@H]2c3cc4c(c(O)c3C[C@H]3COC(=O)[C@@H]32)OCO4)cc(OC)c1O`, for which the survivor count by setting is: (dose: 12.5 mg/kg/injection, schedule: Q01DX010 (sc), vehicle: saline) 0 of 3 on day 11; (dose: 25.0 mg/kg/injection, schedule: Q01DX010 (sc), vehicle: saline) 0 of 3 on day 11; under setting [1], 0 of 3 on day 11; under setting [2], 0 of 3 on day 11; under setting [3], 0 of 3 on day 11; under setting [4], 0 of 3 on day 11.
Regarding `CCN(CC)CCn1[nH]c2c3ccc(=O)cc3sc3c(NCCN)ccc1c32`, the survivor count (dose: 25.0 mg/kg/injection, schedule: Q04DX003 (ip), vehicle: water) is recorded as 1 of 6 on day 11 and the survivor count (dose: 50.0 mg/kg/injection, schedule: Q04DX003 (ip), vehicle: water) is 0 of 6 on day 11.
Turning to `OCC1OC(n2cnc3c(Cl)ncnc32)C(O)C1O` (stereo unspecified), the survivor count (dose: 2400.0 mg/kg/injection, schedule: Q04DX003 (sc), vehicle: saline) was 2 of 6 on day 11.
For the molecule `COc1cc(C(=O)N/N=C/c2cccc([N+](=O)[O-])c2)cc(OC)c1OC`, the T/C under setting [5] is 125 % of control [4 of 6 alive on day 11]. Under setting [6], the survivor count is recorded as 3 of 6 on day 11.
As to `COc1ccc(C(=O)C(CN(C)C)CN(C)C)cc1`, for the setting “dose: 100.0 mg/kg/injection, schedule: Q04DX003 (sc), vehicle: saline”, the survivor count was 0 of 6 on day 11.
Regarding `[Cl][Mn][Cl]`, the survivor count (dose: 300.0 mg/kg/injection, schedule: Q04DX003 (sc), vehicle: saline) is on record as 0 of 6 on day 11.
Take `N=C(N)Sc1ccccn1`: the T/C is 55, 56, 109, 158 % of control [2 of 2 alive on day 11] under setting [1]; 21 [2 of 2 alive on day 11], 38, 82, 120 % of control under setting [2]; 29 [2 of 3 alive on day 11], 82, 109 % of control under setting [3]. Further, the survivor count was 1 of 3 on day 11 under setting [3] and 0 of 2 on day 11, 0 of 3 on day 11, 0 of 6 on day 11 under setting [4].
In the case of `CC1CN1C(=O)NCCCCCCNC(=O)N1CC1C` (stereo unspecified), the survivor count reads like this: (dose: 40.0 mg/kg/injection, schedule: Q04DX003 (sc), vehicle: Klucel (hydroxypropylcellulose) (HPC)) 1 of 6 on day 11; (dose: 80.0 mg/kg/injection, schedule: Q04DX003 (sc), vehicle: Klucel (hydroxypropylcellulose) (HPC)) 0 of 6 on day 11.
Regarding `O=C(Nc1ccc(C2=NCCN2)cc1)c1ccc(C(=O)Nc2ccc(C3=NCCN3)cc2)c(Cl)c1`, the survivor count (dose: 600.0 mg/kg/injection, schedule: Q04DX003 (sc), vehicle: water) is recorded as 0 of 6 on day 11.
Regarding `CCC(NC(N)=O)C(CC)NC(N)=O` (stereo unspecified), the survivor count is recorded as 2 of 6 on day 11 (dose: 75.0 mg/kg/injection, schedule: Q04DX003 (ip), vehicle: saline with Tween-80); 2 of 6 on day 11 (dose: 150.0 mg/kg/injection, schedule: Q04DX003 (ip), vehicle: saline with Tween-80); 0 of 6 on day 11 (dose: 300.0 mg/kg/injection, schedule: Q04DX003 (ip), vehicle: saline with Tween-80); 0 of 5 on day 11 (dose: 600.0 mg/kg/injection, schedule: Q04DX003 (ip), vehicle: saline with Tween-80).
For the molecule `c1ccc2sc(SSN3CC4CCC(CC4)C3)nc2c1`, the T/C reads like this: (dose: 50.0 mg/kg/injection, schedule: Q01DX010 (sc), vehicle: saline with Tween-80) 136 % of control; (dose: 100.0 mg/kg/injection, schedule: Q01DX010 (sc), vehicle: saline with Tween-80) 136 % of control.
For `O=C1CN(Cc2ccc3c(c2)OCO3)NO1`, the survivor count under setting [6] is recorded as 3 of 6 on day 11.
`C[n+]1ccc(Nc2ccc(NC(=O)c3ccc(Nc4cc[n+](C)c5ccc(N)cc45)cc3)cc2)cc1`: the survivor count reads like this: (dose: 100.0 mg/kg/injection, schedule: Q04DX003 (sc), vehicle: distilled water + Tween-80) 2 of 6 on day 11; (dose: 200.0 mg/kg/injection, schedule: Q04DX003 (sc), vehicle: distilled water + Tween-80) 1 of 6 on day 11; (dose: 400.0 mg/kg/injection, schedule: Q04DX003 (sc), vehicle: distilled water + Tween-80) 0 of 6 on day 11.
`O=Cc1ccc(O)c(O)c1`: the T/C under setting [5] is 134 % of control [5 of 6 alive on day 11]. The survivor count reads like this: under setting [6], 3 of 6 on day 11; (dose: 2400.0 mg/kg/injection, schedule: Q04DX003 (sc), vehicle: saline with Tween-80) 3 of 6 on day 11.
Consider `CCCCNC(C)C1(O)Cc2c(O)c3c(c(O)c2C(OC2CC(N)C(O)C(C)O2)C1)C(=O)c1c(OC)cccc1C3=O` (stereo unspecified), for which the survivor count (dose: 400.0 mg/kg/injection, schedule: Q01DX010 (sc), vehicle: water) is recorded as 0 of 3 on day 11.
Turning to `CN1c2c(nc(N)[nH]c2=O)NCC1CCNc1ccc(C(=O)NC(CCC(=O)O)C(=O)O)cc1` (stereo unspecified), the survivor count (dose: 200.0 mg/kg/injection, schedule: Q01DX010 (sc), vehicle: suspension in saline) is 1 of 3 on day 11 and the survivor count (dose: 800.0 mg/kg/injection, schedule: Q01DX010 (sc), vehicle: suspension in saline) is 0 of 3 on day 11.
For the molecule `Cc1ccc(C2NC(=S)N3C(c4ccc(C)cc4)NC(=S)N23)cc1` (stereo unspecified), the T/C (dose: 1200.0 mg/kg/injection, schedule: Q04DX003 (sc), vehicle: Klucel (hydroxypropylcellulose) (HPC)) is 135 % of control [5 of 6 alive on day 11].

(Values after PubChem BioAssay AID296 (DTP/NCI, 2004).)
